Data taken from patent US7879797B2, “HCV NS3 protease inhibitors” (Merck Sharp & Dohme Corp., priority 2005, dated 2011).
Some results were stated once for a whole list of compounds, not compound by compound.

Sequences of proteins named here, by UniProt entry; tags and fusion partners are left off. Residues count along the entry.
UniProt P27958, 1027-1657: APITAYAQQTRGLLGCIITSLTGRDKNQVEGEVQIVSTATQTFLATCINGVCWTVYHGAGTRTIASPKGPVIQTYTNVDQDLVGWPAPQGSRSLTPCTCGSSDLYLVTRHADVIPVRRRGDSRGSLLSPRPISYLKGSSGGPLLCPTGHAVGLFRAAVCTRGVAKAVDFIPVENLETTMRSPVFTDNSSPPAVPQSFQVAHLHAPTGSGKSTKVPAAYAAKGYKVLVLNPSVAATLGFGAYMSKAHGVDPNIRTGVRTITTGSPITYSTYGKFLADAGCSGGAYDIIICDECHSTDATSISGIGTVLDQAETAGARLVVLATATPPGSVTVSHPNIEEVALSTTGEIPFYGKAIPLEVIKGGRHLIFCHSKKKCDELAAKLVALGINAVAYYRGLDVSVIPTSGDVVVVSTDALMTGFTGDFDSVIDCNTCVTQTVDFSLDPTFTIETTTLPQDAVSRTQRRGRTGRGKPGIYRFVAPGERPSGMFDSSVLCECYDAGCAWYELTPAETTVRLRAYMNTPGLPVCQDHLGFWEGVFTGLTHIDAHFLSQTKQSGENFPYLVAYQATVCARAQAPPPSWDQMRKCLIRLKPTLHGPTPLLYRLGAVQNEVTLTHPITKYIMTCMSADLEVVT
UniProt P27958, 1658-1711: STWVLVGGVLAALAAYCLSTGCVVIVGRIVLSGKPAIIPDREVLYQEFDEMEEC

Molecular target: HCV NS3 protease (Hepatitis C virus genotype 1a, UniProt P27958)
Test: HCV NS3 protease time-resolved fluorescence (TRF) assay
Assay type: biochemical

Compound	Ki [µM]
C=C[C@@H]1C[C@]1(NC(=O)[C@@H]1C[C@@H]2CN1C(=O)[C@H](CCCC)NC(=O)OCCCCC/C=C/c1ccc3nc(-c4ccccc4)cc(c3c1)O2)C(=O)O [III-23, (1R,2S)-1-({[(2R,4S,7S)-7-Butyl-6,9-dioxo-22-phenyl-3,4,6,7,8,9,12,13,14,15-decahydro-2H,11H-18,20-ethanediylidene-2,5-methanopyrido[4,3-k][1,10,3,6]dioxadiazacyclohenicosin-4-yl]carbonyl}amino)-2-vinylcyclopropanecarboxylic acid]	< 10
C=C[C@@H]1C[C@]1(NC(=O)[C@@H]1C[C@@H]2CN1C(=O)[C@H](CCCC)NC(=O)OCCCCCCCc1ccc3nc(-c4ccccc4)cc(c3c1)O2)C(=O)O [III-24, (1R,2S)-1-({[(2R,4S,7S)-7-Butyl-6,9-dioxo-22-phenyl-3,4,6,7,8,9,12,13,14,15,16,17-dodecahydro-2H,11H-18,20-ethanediylidene-2,5-methanopyrido[4,3-k][1,10,3,6]dioxadiazacyclohenicosin-4-yl]carbonyl}amino)-2-vinylcyclopropanecarboxylic acid]	< 10
C=C[C@@H]1C[C@]1(NC(=O)[C@@H]1C[C@@H]2CN1C(=O)[C@H](CCCC)NC(=O)OCCCCCC=Cc1ccc3nc(-c4ccccc4)cc(c3c1)O2)C(=O)NS(=O)(=O)C1CC1 [III-25, (2R,4S,7S)-7-Butyl-N-((1R,2S)-1-{[(cyclopropylsulfonyl)amino]carbonyl}-2-vinylcyclopropyl)-6,9-dioxo-22-phenyl-3,4,6,7,8,9,12,13,14,15-decahydro-2H,11H-18,20-ethanediylidene-2,5-methanopyrido[4,3-k][1,10,3,6]dioxadiazacyclohenicosine-4-carboxamide]	< 10
C=C[C@@H]1C[C@]1(NC(=O)[C@@H]1C[C@@H]2CN1C(=O)[C@H](CCCC)NC(=O)OCCCCCCCc1ccc3nc(-c4ccccc4)cc(c3c1)O2)C(=O)NS(=O)(=O)C1CC1 [III-26, (2R,4S,7S)-7-Butyl-N-((1R,2S)-1-{[(cyclopropylsulfonyl)amino]carbonyl}-2-vinylcyclopropyl)-6,9-dioxo-22-phenyl-3,4,6,7,8,9,12,13,14,15,16,17-dodecahydro-2H,11H-18,20-ethanediylidene-2,5-methanopyrido[4,3-k][1,10,3,6]dioxadiazacyclohenicosine-4-carboxamide]	< 10
C=C[C@@H]1C[C@]1(NC(=O)[C@@H]1C[C@@H]2CN1C(=O)[C@H](C(C)C)NC(=O)OCCC/C=C/c1ccc3nc(-c4ccccc4)cc(c3c1)O2)C(=O)O [III-27, (1R,2S)-1-({[(2R,4S,7S)-7-Isopropyl-6,9-dioxo-20-phenyl-3,4,6,7,8,9,12,13-octahydro-2H,11H-16,18-ethanediylidene-2,5-methanopyrido[4,3-k][1,10,3,6]dioxadiazacyclononadecin-4-yl]carbonyl}amino)-2-vinyl cyclopropanecarboxylic acid]	< 10
C=C[C@@H]1C[C@]1(NC(=O)[C@@H]1C[C@@H]2CN1C(=O)[C@H](CCCC)NC(=O)OCCC(C)(C)/C=C/c1ccc3nc(-c4ccccc4)cc(c3c1)O2)C(=O)O [III-28, (1R,2S)-1-({[(2R,4S,7S)-7-Butyl-13,13,-dimethyl-6,9-dioxo-20-phenyl-3,4,6,7,8,9,12,13-octahydro-2H,11H-16,18-ethanediylidene-2,5-methanopyrido[4,3-k][1,10,3,6]dioxadiazacyclononadecin-4-yl]carbonyl}amino)-2-vinylcyclopropane carboxylic acid]	< 10
C=C[C@@H]1C[C@]1(NC(=O)[C@@H]1C[C@@H]2CN1C(=O)[C@H](CCCC)NC(=O)CCC/C=C/c1ccc3nc(-c4ccccc4)cc(c3c1)O2)C(=O)O [III-29, (1R,2S)-1-({[(2R,4S,7S)-7-Butyl-6,9-dioxo-19-phenyl-3,4,7,8,9,10,11,12-octahydro-2H,6H-15,17-ethanediylidene-2,5-methanopyrido[3,4-q][1,5,8]oxadiazacyclooctadecin-4-yl]carbonyl}amino)-2-vinylcyclopropane carboxylic acid]	< 10
C=C[C@@H]1C[C@]1(NC(=O)[C@@H]1C[C@@H]2CN1C(=O)[C@H](CCCC)NC(=O)OCCCC/C=C/c1ccc3nc(-c4ccccc4)cc(c3c1)O2)C(=O)O [III-30, (1R,2S)-1-({[(2R,4S,7S)-7-Butyl-6,9-dioxo-21-phenyl-3,4,6,7,8,9,11,12,13,14-decahydro-2H-17,19-ethanediylidene-2,5-methanopyrido[4,3-k][1,10,3,6]dioxadiazacycloicosin-4-yl]carbonyl}amino)-2-vinylcyclopropane carboxylic acid]	< 10
C=C[C@@H]1C[C@]1(NC(=O)[C@@H]1C[C@@H]2CN1C(=O)[C@H](CCCC)NC(=O)OCCCCCCc1ccc3nc(-c4ccccc4)cc(c3c1)O2)C(=O)O [III-31, (1R,2S)-1-({[(2R,4S,7S)-7-Butyl-6,9-dioxo-21-phenyl-3,4,6,7,8,9,11,12,13,14,15, 16-dodecahydro-2H-17,19-ethanediylidene-2,5-methanopyrido[4,3-k][1,10,3,6]dioxadiazacycloicosin-4-yl]carbonyl}amino)-2-vinyl cyclopropanecarboxylic acid]	< 10
C=C[C@@H]1C[C@]1(NC(=O)[C@@H]1C[C@@H]2CN1C(=O)[C@H](CCCC)NC(=O)CCCCCc1ccc3nc(-c4ccccc4)cc(c3c1)O2)C(=O)O [III-32, (1R,2S)-1-({[(2R,4S,7S)-7-Butyl-6,9-dioxo-19-phenyl-3,4,7,8,9,10,11,12,13,14,- decahydro-2H,6H-15,17-ethanediylidene-2,5-methanopyrido[3,4-q][1,5,8]oxadiazacyclooctadecin-4-yl]carbonyl}amino)-2-vinyl cyclopropanecarboxylic acid]	< 10
C=C[C@@H]1C[C@]1(NC(=O)[C@@H]1C[C@@H]2CN1C(=O)[C@H](C(C)C)NC(=O)OCCCCCc1ccc3nc(-c4ccccc4)cc(c3c1)O2)C(=O)O [III-33, (1R,2S)-1-({[(2R,4S,7S)-7-Isopropyl-6,9-dioxo-20-phenyl-3,4,6,7,8,9,12,13,14,15-decahydro-2H,11H-16, 18-ethanediylidene-2,5-methanopyrido[4,3-k][1,10,3,6]dioxadiazacyclononadecin-4-yl]carbonyl}amino)-2-vinylcyclopropanecarboxy lic acid]	< 10
C=C[C@@H]1C[C@]1(NC(=O)[C@@H]1C[C@@H]2CN1C(=O)[C@H](CCCC)NC(=O)OCC(C)(C)C/C=C/c1ccc3nc(-c4ccccc4)cc(c3c1)O2)C(=O)O [III-34, (1R,S)-1-({[(2R,4S,7S)-7-Butyl-12,12-dimethyl-6,9-dioxo-20-phenyl-3,4,6,7,8,9,12,13-octahydro-2H,11H-16,18-ethanediylidene-2,5-methanopyrido[4,3-k][1, 10,3,6]dioxadiazacyclononadecin-4-yl]carbonyl}amino)-2-vinylcyclopropane carboxylic acid]	< 10
C=C[C@@H]1C[C@]1(NC(=O)[C@@H]1C[C@@H]2CN1C(=O)[C@H](CCCC)NC(=O)CCCCCCc1ccc3nc(-c4ccccc4)cc(c3c1)O2)C(=O)NS(=O)(=O)C1CC1 [III-35, (2R,4S,7S)-7-Butyl-N-((1R,2S)-1-{[(cyclopropylsulfonyl)amino]carbonyl}-2-vinylcyclopropyl)-6,9-dioxo-20-phenyl-3,4,6,7,8,9,10,11, 12,13,14,15-dodecahydro-2H-16,18-ethanediylidene-2,5-methanopyrido[3,4-r][1,5,8]oxadiazacyclo nonadecine-4-carboxamide]	< 10
C=C[C@@H]1C[C@]1(NC(=O)[C@@H]1C[C@@H]2CN1C(=O)[C@H](C(C)C)NC(=O)OCCCCCc1ccc3nc(-c4ccccc4)cc(c3c1)O2)C(=O)NS(=O)(=O)C1CC1 [III-36, (2R,4S,7S)-N-((1R,2S)-1-{[(Cyclopropylsulfonyl)amino]carbonyl}-2-vinylcyclopropyl)-7-isopropyl-6,9-dioxo-20-phenyl-3,4,6,7,8,9,12,13, 14,15-decahydro-2H, 11H-16,18-ethanediylidene-2,5-methanopyrido[4,3-k][1, 10,3,6]dioxadiazacyclono nadecine-4-carboxamide]	< 10
C=C[C@@H]1C[C@]1(NC(=O)[C@@H]1C[C@@H]2CN1C(=O)[C@H](C(C)C)NC(=O)NCCCCCc1cc3c(cc(-c4ccccc4)nc3cc1OC)O2)C(=O)O [III-38, (1R,2S)-1-({[(2R,4S,7S)-7-Isopropyl-23-methoxy-6,9-dioxo-20-phenyl-3,4,6,7,8,9, 10,11,12,13,14,15-dodeca hydro-2H-16,18-ethanediylidene-2,5-methanopyrido[3,4-r][1,5,8,10]oxatriazacyclononadecin-4-yl]carbonyl}amino)-2-vinyl cyclopropanecarboxylic acid]	< 10
C=C[C@@H]1C[C@]1(NC(=O)[C@@H]1C[C@@H]2CN1C(=O)[C@H](C(C)C)NC(=O)OCC(N(C)C)CCCc1ccc3nc(-c4ccccc4)cc(c3c1)O2)C(=O)O (stereo partly drawn) [III-39, (1R,2S)-1-({[(2R,4S,7S)-12-(Dimethylamino)-7-isopropyl-6,9-dioxo-20-phenyl-3,4,6,7,8,9,12,13,14,15-decahydro-2H,11H-16,18-ethanediylidene-2,5-methanopyrido[4,3-k][1,10,3,6]dioxadiazacyclononadecin-4-yl]carbonyl}amino)-2-vinylcyclopropane carboxylic acid]	< 10
C=C[C@@H]1C[C@]1(NC(=O)[C@@H]1C[C@@H]2CN1C(=O)[C@H](C(C)(C)C)NC(=O)OCCCCCc1ccc3nc(-c4ccccc4)cc(c3c1)O2)C(=O)O [III-40, (1R,2S)-1-({[(2R,4S,7S)-7-tert-Butyl-6,9-dioxo-20-phenyl-3,4,6,7,8,9,12,13,14,15-decahydro-2H,11H-16,18-ethanediylidene-2,5-methanopyrido[4,3-k][1,10,3,6]dioxadiazacyclononadecin-4-yl]carbonyl}amino)-2-vinyl cyclopropanecarboxylic acid]	< 10
C=C[C@@H]1C[C@]1(NC(=O)[C@@H]1C[C@@H]2CN1C(=O)[C@H](C(C)(C)C)NC(=O)OCCCCCc1ccc3nc(-c4ccccc4)cc(c3c1)O2)C(=O)NS(=O)(=O)C1CC1 [III-41, (2R,4S,7S)-7-tert-Butyl-N-((1R,2S)-1-{[(cyclopropylsulfonyl)amino]carbonyl}-2-vinylcyclopropyl)-6,9-dioxo-20-phenyl-3,4,6,7,8,9,12,13,14,15-decahydro-2H,11H-16,18-ethanediylidene-2,5-methanopyrido[4,3-k][1,10,3,6]dioxadiazacyclononad ecine-4-carboxamide]	< 10
